Some of the results follow.
Target: T1, OsSMF1 (Oryza sativa, UniProt Q6ZLB0 1-436)
T1 sequence: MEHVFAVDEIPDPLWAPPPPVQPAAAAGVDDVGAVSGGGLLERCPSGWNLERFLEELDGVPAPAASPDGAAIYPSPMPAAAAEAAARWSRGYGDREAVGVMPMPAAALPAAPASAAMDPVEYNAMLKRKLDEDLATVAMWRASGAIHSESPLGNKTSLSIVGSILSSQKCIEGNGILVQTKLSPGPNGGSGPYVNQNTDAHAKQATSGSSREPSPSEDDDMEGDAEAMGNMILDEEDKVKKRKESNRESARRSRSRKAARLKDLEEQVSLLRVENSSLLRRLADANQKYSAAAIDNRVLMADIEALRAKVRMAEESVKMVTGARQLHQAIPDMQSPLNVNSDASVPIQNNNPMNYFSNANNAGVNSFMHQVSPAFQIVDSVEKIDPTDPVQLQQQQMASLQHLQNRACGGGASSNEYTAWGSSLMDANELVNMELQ
Experiment: protein-binding microarray (RPBM); PBS, 2% BSA, 51.3 ng/ul salmon testes DNA, 50 uM zinc acetate, 200 nM TF, 25 C, 1 h; high values mean tight binding
Details: protein: recombinant; tags: N-terminal polyhistidine and DsRed monomer fusion (pET32a); chain copies: 2; label: CyDye5-dUTP incorporated in the synthesized complementary strand; 3' TTTTT single-stranded linker to array surface; dsDNA, one strand shown
Procedure, shortened: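 The binding signal for each feature is its fluorescence intensity in arbitrary units. An Axon 4000B scanner was used to read a custom Agilent array that had been made double-stranded with Cy5-dUTP primer extension, blocked with 2% BSA, incubated at 25 °C for 1 h with 200 nM protein in PBS, 2% BSA, salmon testes DNA and 50 µM zinc acetate, and washed. The protein was an N-terminal polyhistidine–DsRed transcription factor fusion from E. coli BL21-CodonPlus, purified on Ni–NTA.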

Going from “GACGTTCAGCCCCAACATGTCAGCTCGGAGATTTCTCTCCCGGAGTCACCTAGTGCAG” to “GAAAATCGATTCGTTGGTGTCATAACGTGTCTATCGGTGTCGGAGTCACCTAGTGCAG”, the binding signal rises from 3160 fluorescence intensity (a.u.) to 5590 fluorescence intensity (a.u.).

Going from “ATAACCGTTTAGTCGACATGATGTAGGACATAAGGTGGACCGGAGTCACCTAGTGCAG” to “CCCCATCGCGCAGCCACGTCTGCCTGGCACCGTCCCCATCCGGAGTCACCTAGTGCAG”, the binding signal rises from 3280 fluorescence intensity (a.u.) to 7900 fluorescence intensity (a.u.).

Compared with “GTTGGTCCTCCTGACTCTGACTCTGGATGCCACTACCTGCCGGAGTCACCTAGTGCAG”, “CGTCCGCCACGAAAGCCCTTCTTTCTCCACTCTACCGCGGCGGAGTCACCTAGTGCAG” is lower in binding signal: 4210 fluorescence intensity (a.u.) for the first, 3290 fluorescence intensity (a.u.) for the second.

Compared with “CGTCCCCGCCGTTGATCCCGGCAAGGCACACGCAAGACACCGGAGTCACCTAGTGCAG”, “AGCTGAGTTACCAAATTATTACTTGATTTCTCTGTTGGAACGGAGTCACCTAGTGCAG” is lower in binding signal: 3640 fluorescence intensity (a.u.) for the first, 3240 fluorescence intensity (a.u.) for the second.

Compared with “AACGAGCCACGCAATCAGTATACTAGCTACCCCGTCCACACGGAGTCACCTAGTGCAG”, “GGACTTGGAGCTCAGGCTCTAGACAACCACGCGATCAAATCGGAGTCACCTAGTGCAG” is higher in binding signal: 3880 fluorescence intensity (a.u.) for the first, 18300 fluorescence intensity (a.u.) for the second.

Going from “TGACGAACACGGAAAGCAACCACGTGGCGACGAACACGGCCGGAGTCACCTAGTGCAG” to “TCCCAAAGTAATATCTGGTTCCAATATTGTGTCAGCCATTCGGAGTCACCTAGTGCAG”, the binding signal falls from 6240 fluorescence intensity (a.u.) to 3140 fluorescence intensity (a.u.).

“CTATATTTGCACTATAACGTTATATTTAATATATTTCCACCGGAGTCACCTAGTGCAG” and “CCACGGGCCGTGCTTGGGCCGGCGGCTCGGCACGTGGGTCCGGAGTCACCTAGTGCAG” are the same in binding signal: 3210 fluorescence intensity (a.u.) for the first, 3210 fluorescence intensity (a.u.) for the second.

First: AGGTTTAACACTACCAATTAGGGTTTCGAACCAAACATATCGGAGTCACCTAGTGCAG
Second: TCGGCCACCCAACAAGTGGGCCCACCTGTCAGTGACTGTGCGGAGTCACCTAGTGCAG
The binding signal of the first is lower: 3530 fluorescence intensity (a.u.) for the first, 4090 fluorescence intensity (a.u.) for the second.

Compared with “TTTTGATTAGAACTGTATGTCCAGCTTGTGATGTACCTAACGGAGTCACCTAGTGCAG”, “TTTTATTTCTACTGCCACGTAGGTGCCACGTCAACGCCACCGGAGTCACCTAGTGCAG” is higher in binding signal: 10200 fluorescence intensity (a.u.) for the first, 49800 fluorescence intensity (a.u.) for the second.

Going from “CCGGCGCGGCCGTCGCGCGGGGAGTGCGGTGGCGTTTCCACGGAGTCACCTAGTGCAG” to “AATGAGATACTTAGACTTGTGAGGCCCGACGTGTCCAATCCGGAGTCACCTAGTGCAG”, the binding signal rises from 3190 fluorescence intensity (a.u.) to 4470 fluorescence intensity (a.u.).

Compared with “CTTGCATATGCGCCTATAAGTACGCGTGGCAGCCTCGATCCGGAGTCACCTAGTGCAG”, “AAGGTTTTGTACGTAACCCTTTACAATTTCTAAAATTAGTCGGAGTCACCTAGTGCAG” is higher in binding signal: 6180 fluorescence intensity (a.u.) for the first, 21500 fluorescence intensity (a.u.) for the second.

Going from “GTTCTAACTGAAACGATGATGACTGAGCAGTAGCAGACTACGGAGTCACCTAGTGCAG” to “CAAATATTTAGTCCCTGTTTCCCTGTCATTGCCTTCGACTCGGAGTCACCTAGTGCAG”, the binding signal falls from 4430 fluorescence intensity (a.u.) to 3400 fluorescence intensity (a.u.).

First: GTATCATTGGTTTTCATTTGTTTGGTGTGTCAGAGGCATACGGAGTCACCTAGTGCAG
Second: AGTATAACCACCGGGCCCCACGCGTCATCCTCCCGCGCGTCGGAGTCACCTAGTGCAG
The binding signal of the first is lower: 4520 fluorescence intensity (a.u.) for the first, 5930 fluorescence intensity (a.u.) for the second.

First: CATGGTGTCGTGCAAACCCTGTGTGCTCGGTCATGATACTCGGAGTCACCTAGTGCAG
Second: AAGGTGGTGGTCGAGGATGGCGTCATGCGCGTGTGGGATGCGGAGTCACCTAGTGCAG
The binding signal of the first is lower: 3180 fluorescence intensity (a.u.) for the first, 4410 fluorescence intensity (a.u.) for the second.

Compared with “TGCGTCTCCCTTCCCCGGGCTATCCATCCATCTATCTACCCGGAGTCACCTAGTGCAG”, “GAGGTTTGAATCTCAACAGACACGCATTTCTCATAGCACACGGAGTCACCTAGTGCAG” is higher in binding signal: 3320 fluorescence intensity (a.u.) for the first, 4310 fluorescence intensity (a.u.) for the second.

First: GTTCCTGTTGTTGCGTCTACTGCTGCTTCCGTGTCGCTGCCGGAGTCACCTAGTGCAG
Second: TGATGGGGAAAAGAATATGCCACCTCATTGGGCTTTTATCCGGAGTCACCTAGTGCAG
The binding signal of the first is lower: 3550 fluorescence intensity (a.u.) for the first, 5600 fluorescence intensity (a.u.) for the second.

Going from “ACGAAATCGACGCACGTGTAGACATCATGTGACACACAGACGGAGTCACCTAGTGCAG” to “GCGGTCGGTAGCTGTACATACGTCACCAGTTCGTACGGTGCGGAGTCACCTAGTGCAG”, the binding signal rises from 5620 fluorescence intensity (a.u.) to 13200 fluorescence intensity (a.u.).

Going from “GTAGTGCACTAGTGCGTCACACTCACACACACACACAAGCCGGAGTCACCTAGTGCAG” to “GCCTCTTGGCGCCGTCGACCTCCGCGCCGAGGAGGCCCTGCGGAGTCACCTAGTGCAG”, the binding signal rises from 4100 fluorescence intensity (a.u.) to 5520 fluorescence intensity (a.u.).

Compared with “GTGAGATGACGGCATCATCTGATGGTTCTATAAATACTCCCGGAGTCACCTAGTGCAG”, “GCGCAGCTGGCGCGGAGCATCCACGAGCTCGCGGCCACGTCGGAGTCACCTAGTGCAG” is lower in binding signal: 3940 fluorescence intensity (a.u.) for the first, 3840 fluorescence intensity (a.u.) for the second.

Compared with “CTCAAAACCCAAAATGTATAGATGACATTTCAATTCAAACCGGAGTCACCTAGTGCAG”, “ATGGGTAATATGTCTCACCCTGCTTGGTTGGTTTCGCATTCGGAGTCACCTAGTGCAG” is higher in binding signal: 3270 fluorescence intensity (a.u.) for the first, 34000 fluorescence intensity (a.u.) for the second.

Compared with “ATATGAATATTACTTTAAGTGTGACTCATAATTCTATTAACGGAGTCACCTAGTGCAG”, “TGACATGATGGGCCACCCTGTCAGCCTCTCATCGTCTCCACGGAGTCACCTAGTGCAG” is higher in binding signal: 4680 fluorescence intensity (a.u.) for the first, 5560 fluorescence intensity (a.u.) for the second.

— article PMC7819943, “Rice protein-binding microarrays: a tool to detect cis-acting elements near promoter regions in rice”
